Inconclusive results, whose numbers are uncertain, are shown with a selection of clear calls. Where the call is inconclusive, the potency comes from a doubtful curve fit. The source made the active and inactive calls. Calls come from the whole dose curve; as a rule, active = well fitted curve in the direction sought with a large enough effect; inconclusive = small, poorly fitted or top-dose-only effect, or another doubt; inactive = no such curve, though single readings can be large; an effect the other way counts as inactive or inconclusive.
What was measured:
[1] = Quantitative High-Throughput drug screen in 47 multiple myeloma cell lines against the NCATS MIPE library collection: JIM1_ECACC cell viability assay (AID 1918964); conditions: JIM1 myeloma viability, CellTiter-Glo ATP luminescence, 48 h; viability (% of DMSO): at 45.8 µM (top of the series)
Procedure, shortened: (§1)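 Relative luminescence from CellTiter-Glo served as the viability signal, referenced to DMSO-treated (100%) and cell-free medium (0%) controls. Treatment lasted 48 hours at 37C with 500 cells per well.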

[2] = Quantitative High-Throughput drug screen in 47 multiple myeloma cell lines against the NCATS MIPE library collection: JJN3_DSMZ cell viability assay (AID 1918966; note: nearly all actives have a fitted effect of over 50% in size); conditions: JJN3 myeloma cells viability, CellTiter-Glo ATP, 48 h; series mostly up to 45.8 µM
Procedure, shortened: as §1

[3] = Quantitative High-Throughput drug screen in 47 multiple myeloma cell lines against the NCATS MIPE library collection: H1112_PLB cell viability assay (AID 1918967; note: nearly all actives have a fitted effect of over 30% in size); conditions: H1112 myeloma cells viability, ATP luminescence, 48 h; viability: at 45.8 µM (top of the series)
Procedure, shortened: as §1

[4] = Quantitative High-Throughput drug screen in 47 multiple myeloma cell lines against the NCATS MIPE library collection: KMS27_JCRB cell viability assay (AID 1918970); conditions: KMS27 myeloma cells, CellTiter-Glo ATP viability, 48 h; viability (% of DMSO): at 45.8 µM (top of the series); note: nearly all actives have a fitted effect of over 30% in size
Procedure, shortened: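 Myeloma cells (500 per well) were exposed to MIPE 4.0 compounds for 48 h at 37 °C, 5% CO2; viability was read as ATP luminescence with CellTiter-Glo, normalized to DMSO-only (100%) and media-only (0%) wells.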

[5] = Quantitative High-Throughput drug screen in 47 multiple myeloma cell lines against the NCATS MIPE library collection: KMS21BM_JCRB cell viability assay (AID 1918974); conditions: ATP luminescence, 48 h; viability: at 45.8 µM (top of the series) unless noted
Procedure, shortened: as §1

[6] = Quantitative High-Throughput drug screen in 47 multiple myeloma cell lines against the NCATS MIPE library collection: MMM1_PLB cell viability assay (AID 1918976); note: nearly all actives have a fitted effect of over 35% in size
Procedure, shortened: (§2)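 Readout: median RLU from CellTiter-Glo after 5 min at room temperature. Preceding step was 48 h drug treatment of 500 cells/well at 37 °C, 5% CO2, with DMSO-only and media-only control wells.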

[7] = Quantitative High-Throughput drug screen in 47 multiple myeloma cell lines against the NCATS MIPE library collection: MOLP8_DSMZ cell viability assay (AID 1918977); conditions: MOLP8 myeloma viability, CellTiter-Glo ATP luminescence, 48 h; viability (% of control): at 45.8 µM (top of the series); note: nearly all actives have a fitted effect of over 45% in size
Procedure, shortened: as §2

[8] = Quantitative High-Throughput drug screen in 47 multiple myeloma cell lines against the NCATS MIPE library collection: NCIH929_DSMZ cell viability assay (AID 1918978); note: nearly all actives have a fitted effect of over 35% in size
Procedure, shortened: as §2

[9] = Quantitative High-Throughput drug screen in 47 multiple myeloma cell lines against the NCATS MIPE library collection: OCIMY1_PLB cell viability assay (AID 1918979); note: nearly all actives have a fitted effect of over 35% in size
Procedure, shortened: as §2

[10] = Quantitative High-Throughput drug screen in 47 multiple myeloma cell lines against the NCATS MIPE library collection: MM1S_ATCC cell viability assay (AID 1918980); note: nearly all actives have a fitted effect of over 45% in size
Procedure, shortened: as §2

[11] = Quantitative High-Throughput drug screen in 47 multiple myeloma cell lines against the NCATS MIPE library collection: KMS28PE_JCRB cell viability assay (AID 1918983); note: nearly all actives have a fitted effect of over 35% in size
Procedure, shortened: as §2

[12] = Quantitative High-Throughput drug screen in 47 multiple myeloma cell lines against the NCATS MIPE library collection: Karpas25_ECACC cell viability assay (AID 1918968; note: nearly all actives have a fitted effect of over 35% in size); conditions: Karpas25 myeloma viability, CellTiter-Glo ATP, 48 h; viability (% of control): at 45.8 µM (top of the series)
Procedure, shortened: as §1

[13] = Quantitative High-Throughput drug screen in 47 multiple myeloma cell lines against the NCATS MIPE library collection: KMS12BM_JCRB cell viability assay (AID 1918971); note: nearly all actives have a fitted effect of over 35% in size
Procedure, shortened: (§3)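 Approved and investigational drugs from MIPE 4.0 were added by pin tool to 500 cells per well. After 48 hours at 37C, ATP-based CellTiter-Glo luminescence indicated remaining viability.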

[14] = Quantitative High-Throughput drug screen in 47 multiple myeloma cell lines against the NCATS MIPE library collection: KMS26_JCRB cell viability assay (AID 1918975); conditions: KMS26 myeloma cells viability, CellTiter-Glo ATP, 48 h; viability (% of DMSO): at 45.8 µM (top of the series); note: nearly all actives have a fitted effect of over 45% in size
Procedure, shortened: as §3

[15] = Quantitative High-Throughput drug screen in 47 multiple myeloma cell lines against the NCATS MIPE library collection: MM1R_ATCC cell viability assay (AID 1918981); note: nearly all actives have a fitted effect of over 35% in size
Procedure, shortened: as §2

[16] = Quantitative High-Throughput drug screen in 47 multiple myeloma cell lines against the NCATS MIPE library collection: LP1_DSMZ cell viability assay (AID 1918982); note: nearly all actives have a fitted effect of over 35% in size
Procedure, shortened: as §2

[17] = Quantitative High-Throughput drug screen in 47 multiple myeloma cell lines against the NCATS MIPE library collection: KMS12PE_JCRB cell viability assay (AID 1918972); conditions: KMS12PE myeloma viability, CellTiter-Glo ATP, 48 h; viability: at 45.8 µM (top of the series); note: nearly all actives have a fitted effect of over 30% in size
Procedure, shortened: as §1

[18] = Quantitative High-Throughput drug screen in 47 multiple myeloma cell lines against the NCATS MIPE library collection: KMS20_JCRB cell viability assay (AID 1918973); conditions: CellTiter-Glo ATP, 48 h; viability (% of DMSO): at 45.8 µM (top of the series); note: nearly all actives have a fitted effect of over 45% in size
Procedure, shortened: as §1
Potency is the fitted concentration of half-maximal effect.

Compound | Potency [1] | Potency [2] | Potency [3] | Potency [4] | Potency [5] | Potency [6] | Potency [7] | Potency [8] | Potency [9] | Potency [10] | Potency [11] | Potency [12] | Potency [13] | Potency [14] | Potency [15] | Potency [16] | Potency [17] | Potency [18]
S=c1nc[nH]c2nc[nH]c12 | inconclusive: 11.8 µM [cytotoxic, partial curve, poor fit] | inconclusive: 0.833 µM [cytotoxic, full curve, poor fit] | inconclusive: 8.33 µM [cytotoxic, partial curve] | active: 7.43 µM | inconclusive: 6.62 µM [cytotoxic, partial curve, poor fit] | inconclusive: 0.0013 µM [rising, full curve, poor fit] | inactive | active: 2.96 µM | inconclusive: 0.0013 µM [cytotoxic, full curve, poor fit] | inconclusive: 2.64 µM [cytotoxic, full curve] | inconclusive: 2.64 µM [cytotoxic, partial curve, poor fit] |  |  |  |  |  |  | 
C=CCc1ccc(O)c(-c2ccc(O)c(CC=C)c2)c1 | inconclusive: 29.6 µM [cytotoxic, partial curve, poor fit] | inconclusive: 20.9 µM [cytotoxic, partial curve, poor fit] | inconclusive: 18.7 µM [cytotoxic, partial curve] | active: 23.5 µM | inconclusive: 37.2 µM [cytotoxic, partial curve, poor fit] | inconclusive: 18.7 µM [cytotoxic, partial curve, poor fit] | inconclusive: 4.18 µM [cytotoxic, partial curve, poor fit] | inconclusive: 26.4 µM [cytotoxic, single point] | inconclusive: 23.5 µM [cytotoxic, single point] |  | inconclusive: 1.32 µM [cytotoxic, partial curve, poor fit] | inconclusive: 33.2 µM [cytotoxic, single point] | inconclusive: 26.4 µM [cytotoxic, single point] | inconclusive: 1.18 µM [cytotoxic, full curve, poor fit] | inconclusive: 16.6 µM [cytotoxic, partial curve] | inconclusive: 11.8 µM [cytotoxic, partial curve] |  | 
C[C@]12CCC3c4ccc(O)cc4CCC3C1CCC2=O (stereo not given in full) | inconclusive: 0.332 µM [cytotoxic, full curve, poor fit] | inconclusive: 0.001 µM [cytotoxic] | inactive |  | inconclusive: 0.0105 µM [rising, full curve] |  |  | inactive | inactive | inconclusive: 4.18 µM [cytotoxic, full curve, poor fit] | active: 11.8 µM | inconclusive: 0.743 µM [cytotoxic, full curve, poor fit] |  | active: 3.32 µM |  | active: 18.7 µM | inactive | inconclusive: 0.0372 µM [cytotoxic, full curve, poor fit]
N#CC(=Cc1ccc(O)c(O)c1)C(=O)NCc1ccccc1 | inconclusive: 0.209 µM [cytotoxic, full curve, poor fit] | inconclusive: 2.64 µM [cytotoxic, full curve, poor fit] | active: 7.43 µM |  | inconclusive: 33.2 µM [rising, partial curve, poor fit] | active: 3.32 µM | inconclusive: 4.18 µM [cytotoxic, full curve, poor fit] | inconclusive: 8.33 µM [cytotoxic, full curve] |  |  |  | inconclusive: 8.33 µM [cytotoxic, full curve] | inconclusive: 3.72 µM [cytotoxic, full curve, poor fit] | inconclusive: 4.18 µM [cytotoxic, full curve, poor fit] | inconclusive: 3.32 µM [cytotoxic, full curve, poor fit] | inconclusive: 14.8 µM [cytotoxic, partial curve, poor fit] | inconclusive: 6.62 µM [cytotoxic, partial curve, poor fit] | 
CC[C@H]1OC(=O)[C@H](C)[C@@H](O[C@H]2C[C@@](C)(OC)[C@@H](O)[C@H](C)O2)[C@H](C)[C@@H](O[C@@H]2O[C@H](C)C[C@H](N(C)C)[C@@H]2O)[C@](C)(O)C[C@@H](C)CN(C)[C@H](C)[C@@H](O)[C@]1(C)O | inconclusive: 0.0148 µM [rising, full curve, poor fit] | inconclusive: 8.33 µM [cytotoxic, partial curve, poor fit] | inactive | inconclusive: 8.33 µM [cytotoxic, partial curve, poor fit] | inconclusive: 33.2 µM [rising, single point] | inconclusive: 5.26 µM [cytotoxic, full curve, poor fit] | inconclusive: 0.0019 µM [cytotoxic, full curve, poor fit] |  |  |  |  |  | inactive | inactive | inconclusive: 6.62 µM [cytotoxic, partial curve, poor fit] |  |  | inconclusive: 0.0148 µM [cytotoxic, full curve, poor fit]
CCOC(=O)Nc1ccc(NCc2ccc(F)cc2)nc1N | inconclusive: 18.7 µM [cytotoxic, partial curve, poor fit] | inconclusive: 5.9 µM [cytotoxic, partial curve, poor fit] | inactive |  | inconclusive: 29.6 µM [rising, partial curve, poor fit] | inconclusive: 1.05 µM [cytotoxic, partial curve, poor fit] | inactive | inconclusive: 20.9 µM [cytotoxic, partial curve, poor fit] |  | active: 23.5 µM | inactive | inactive | inactive | inconclusive: 1.18 µM [cytotoxic, full curve, poor fit] | inconclusive: 6.62 µM [cytotoxic, full curve, poor fit] |  | inconclusive: 16.6 µM [cytotoxic, partial curve] | inconclusive: 0.0019 µM [cytotoxic, full curve, poor fit]
CCC1=C(C)CN(C(=O)NCCc2ccc(S(=O)(=O)NC(=O)NC3CCC(C)CC3)cc2)C1=O (stereo not given) | inconclusive: 0.0105 µM [cytotoxic, full curve, poor fit] | inactive |  |  | inactive |  | inconclusive: 11.8 µM [rising, single point] | inactive | inactive | inactive | inactive |  | inconclusive: 3.32 µM [rising, partial curve, poor fit] | inactive | inactive |  | inactive | inactive
O=C(Nc1c(Cl)cncc1Cl)c1ccc(OC(F)F)c(OCC2CC2)c1 | inconclusive: 1.05 µM [rising, full curve, poor fit] | inactive |  |  | inactive | inconclusive: 0.0118 µM [rising, full curve, poor fit] | inconclusive: 0.0662 µM [rising, full curve, poor fit] | active: 23.5 µM | active: 0.0012 µM |  |  | inconclusive: 33.2 µM [cytotoxic, single point] | inactive | inactive | inactive |  |  | 
CCC(=O)N[C@H]1CC[C@H](C(=O)N(C)c2ccc(-c3nc4ccccc4o3)cc2)C1 | inconclusive: 23.5 µM [cytotoxic, single point] | inconclusive: 33.2 µM [cytotoxic, single point] | active: 11.8 µM |  |  |  | inconclusive: 1.48 µM [cytotoxic, full curve, poor fit] | active: 2.96 µM | inactive | active: 5.26 µM |  |  | inactive | inconclusive: 0.0296 µM [cytotoxic, full curve, poor fit] |  | inconclusive: 10.5 µM [cytotoxic, partial curve] |  | active: 7.43 µM
COc1cc2nc(N3CCN(C(=O)c4ccco4)CC3)nc(N)c2cc1OC | inconclusive: 8.33 µM [cytotoxic, full curve] | inconclusive: 33.2 µM [cytotoxic, single point] |  |  | inconclusive: 9.35 µM [cytotoxic, full curve, poor fit] | inconclusive: 26.4 µM [cytotoxic, single point] | active: 20.9 µM |  | inconclusive: 29.6 µM [cytotoxic, single point] |  |  |  | inconclusive: 33.2 µM [cytotoxic, single point] | inconclusive: 37.2 µM [cytotoxic, single point] |  | inconclusive: 33.2 µM [cytotoxic, single point] |  | active: 8.33 µM
CC(C)(C)[N+]([O-])=Cc1ccc(S(=O)(=O)O)cc1S(=O)(=O)O | inactive | inactive |  |  |  | inconclusive: 0.0066 µM [rising, full curve] |  |  |  | inconclusive: 0.0053 µM [rising, full curve] |  | inactive | inconclusive: 0.372 µM [rising, full curve, poor fit] | inactive |  |  | inconclusive: 0.001 µM | inactive
Cc1ncc([N+](=O)[O-])n1CCO | inconclusive: 0.372 µM [rising, full curve, poor fit] | inactive |  | inactive | inactive | inconclusive: 0.0042 µM [rising, full curve, poor fit] | inactive | inactive | inactive | inconclusive: 0.0059 µM [rising, full curve, poor fit] |  |  | inconclusive: 0.0469 µM [rising, full curve, poor fit] |  | inactive | inactive |  | inconclusive: 1.66 µM [rising, partial curve, poor fit]
